Test results: paper PMC10250233
Construct, isoform or probe ends are uncertain for at least one entry.

Chains of the proteins cited; added tags and fusions are not shown. Chains listed by the source or under a name are the forms on record and can include a tag or linker.
CST (CTC1-STN1-TEN1) (human), one chain, as listed by the source, chain 2 of 3: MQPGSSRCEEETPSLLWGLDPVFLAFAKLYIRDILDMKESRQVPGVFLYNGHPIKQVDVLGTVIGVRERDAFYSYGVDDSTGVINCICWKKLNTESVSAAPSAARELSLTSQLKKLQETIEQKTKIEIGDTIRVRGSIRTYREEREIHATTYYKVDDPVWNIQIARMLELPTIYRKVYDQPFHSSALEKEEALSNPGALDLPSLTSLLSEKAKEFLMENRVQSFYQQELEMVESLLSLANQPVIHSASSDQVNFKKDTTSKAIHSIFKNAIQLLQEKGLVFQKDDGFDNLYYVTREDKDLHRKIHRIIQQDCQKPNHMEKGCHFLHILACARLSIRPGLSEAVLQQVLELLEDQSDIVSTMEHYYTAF
CST (CTC1-STN1-TEN1) (human), one chain, as listed by the source, chain 1 of 3: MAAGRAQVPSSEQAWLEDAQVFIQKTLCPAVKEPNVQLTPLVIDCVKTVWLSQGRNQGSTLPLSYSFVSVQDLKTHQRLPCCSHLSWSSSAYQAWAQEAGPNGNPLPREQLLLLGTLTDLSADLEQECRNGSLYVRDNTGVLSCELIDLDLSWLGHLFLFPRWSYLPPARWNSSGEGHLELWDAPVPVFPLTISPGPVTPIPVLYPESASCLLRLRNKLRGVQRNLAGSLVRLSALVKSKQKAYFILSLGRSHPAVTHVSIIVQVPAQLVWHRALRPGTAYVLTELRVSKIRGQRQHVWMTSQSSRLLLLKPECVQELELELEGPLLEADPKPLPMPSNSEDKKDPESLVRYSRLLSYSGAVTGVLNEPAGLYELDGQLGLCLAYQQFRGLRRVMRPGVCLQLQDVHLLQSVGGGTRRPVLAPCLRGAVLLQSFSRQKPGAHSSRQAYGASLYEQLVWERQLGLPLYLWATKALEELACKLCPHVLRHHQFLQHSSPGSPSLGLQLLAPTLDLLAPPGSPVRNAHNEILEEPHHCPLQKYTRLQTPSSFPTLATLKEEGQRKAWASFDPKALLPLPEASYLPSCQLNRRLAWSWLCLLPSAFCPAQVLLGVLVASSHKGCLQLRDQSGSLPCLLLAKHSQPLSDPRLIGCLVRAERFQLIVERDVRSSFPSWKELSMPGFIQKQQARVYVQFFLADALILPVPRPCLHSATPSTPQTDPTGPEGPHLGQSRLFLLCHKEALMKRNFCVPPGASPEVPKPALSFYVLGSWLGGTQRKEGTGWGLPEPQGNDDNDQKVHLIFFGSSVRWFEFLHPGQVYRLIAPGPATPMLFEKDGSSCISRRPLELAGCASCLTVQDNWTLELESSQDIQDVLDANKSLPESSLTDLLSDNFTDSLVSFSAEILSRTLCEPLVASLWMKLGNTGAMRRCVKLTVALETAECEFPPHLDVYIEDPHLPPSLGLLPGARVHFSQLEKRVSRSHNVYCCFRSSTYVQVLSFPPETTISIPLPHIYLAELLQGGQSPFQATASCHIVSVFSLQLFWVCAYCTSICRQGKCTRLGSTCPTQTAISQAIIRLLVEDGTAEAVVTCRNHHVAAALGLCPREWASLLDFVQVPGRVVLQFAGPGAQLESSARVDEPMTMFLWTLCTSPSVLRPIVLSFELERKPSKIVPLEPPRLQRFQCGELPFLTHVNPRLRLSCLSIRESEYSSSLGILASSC
CST (CTC1-STN1-TEN1) (human), one chain, as listed by the source, chain 3 of 3: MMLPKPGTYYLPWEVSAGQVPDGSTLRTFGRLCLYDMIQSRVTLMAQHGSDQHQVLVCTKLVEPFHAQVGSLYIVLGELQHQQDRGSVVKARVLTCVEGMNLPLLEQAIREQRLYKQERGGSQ

Test system: CST (CTC1-STN1-TEN1) (human)
Test: fluorescence anisotropy
Conditions: FA: 200 mM NaCl, KCl or LiCl, 20 mM HEPES pH 7.4, 1 mM DTT, 22-25 C, 375 or 750 pM oligo, Kd,app +/- SEM, recombinant protein
[1] = 200 mM KCl, label: 5' …, folded or branched DNA
[2] = 200 mM KCl, printed >=, label: 5' fluorescein, folded or branched DNA

Sequence | Kd [1] [µM] | Kd [2] [µM] | other results
AGGGCTAGGGCTAGGGCTAGGG [2KM3] | 0.081 | – | –
GGGTAGGGAGCGGGAGAGGG [6GZN] | 0.039 | – | –
TTGGGTTAGGGTTAGGGTTAGGGA [2GKU] | – | > 1.4 | –
CCCTAACCCTAACCCTAA [C18] | – | – | Kd (200 mM NaCl, printed >=, label: 5' fluorescein, single-stranded DNA): > 0.44 µM
TAGGGTTAGGGTTAGGGTTAGGGTT [2JSL] | – | > 1.1 | –
